From patent US7575856B2, “Compositions and methods for the evaluation and resuscitation of cadaveric hearts for transplant” (The United States of America as represented by the …, priority 2005, dated 2009)
At least one structure is not confirmed: it was looked up by name or label, or the drawing left a doubt. Where no end group is shown, it is not given here.

Tested on: coronary rings
Assay: Endothelial vasomotor and smooth muscle function: dose responses of coronary rings to bradykinin and nipride
Set-up: species or system pigs
Settings: bradykinin 10^-8 M

## RPPGFSPFR [bradykinin]
Control coronary rings, second of the two printed values
  dose response relaxation, change from baseline: 42
Coronary rings of resuscitated hearts after 30 min ischemia and reperfusion, first of the two printed values, P>0.05 vs controls
  dose response relaxation, change from baseline: 44
